Laboratory results from the supplement of paper PMC11732987, “Enantioselective OTUD7B fragment discovery through chemoproteomics screening and high-throughput optimisation” (Communications Chemistry, 2025).
The other results are listed elsewhere or left out. The data scatter; read single values as rough.

Amino acid sequences for entries named in this document (tags omitted). A change or cut given only in a name is not applied to a line headed by its entry. Residues count along the entry.
UniProt P20585: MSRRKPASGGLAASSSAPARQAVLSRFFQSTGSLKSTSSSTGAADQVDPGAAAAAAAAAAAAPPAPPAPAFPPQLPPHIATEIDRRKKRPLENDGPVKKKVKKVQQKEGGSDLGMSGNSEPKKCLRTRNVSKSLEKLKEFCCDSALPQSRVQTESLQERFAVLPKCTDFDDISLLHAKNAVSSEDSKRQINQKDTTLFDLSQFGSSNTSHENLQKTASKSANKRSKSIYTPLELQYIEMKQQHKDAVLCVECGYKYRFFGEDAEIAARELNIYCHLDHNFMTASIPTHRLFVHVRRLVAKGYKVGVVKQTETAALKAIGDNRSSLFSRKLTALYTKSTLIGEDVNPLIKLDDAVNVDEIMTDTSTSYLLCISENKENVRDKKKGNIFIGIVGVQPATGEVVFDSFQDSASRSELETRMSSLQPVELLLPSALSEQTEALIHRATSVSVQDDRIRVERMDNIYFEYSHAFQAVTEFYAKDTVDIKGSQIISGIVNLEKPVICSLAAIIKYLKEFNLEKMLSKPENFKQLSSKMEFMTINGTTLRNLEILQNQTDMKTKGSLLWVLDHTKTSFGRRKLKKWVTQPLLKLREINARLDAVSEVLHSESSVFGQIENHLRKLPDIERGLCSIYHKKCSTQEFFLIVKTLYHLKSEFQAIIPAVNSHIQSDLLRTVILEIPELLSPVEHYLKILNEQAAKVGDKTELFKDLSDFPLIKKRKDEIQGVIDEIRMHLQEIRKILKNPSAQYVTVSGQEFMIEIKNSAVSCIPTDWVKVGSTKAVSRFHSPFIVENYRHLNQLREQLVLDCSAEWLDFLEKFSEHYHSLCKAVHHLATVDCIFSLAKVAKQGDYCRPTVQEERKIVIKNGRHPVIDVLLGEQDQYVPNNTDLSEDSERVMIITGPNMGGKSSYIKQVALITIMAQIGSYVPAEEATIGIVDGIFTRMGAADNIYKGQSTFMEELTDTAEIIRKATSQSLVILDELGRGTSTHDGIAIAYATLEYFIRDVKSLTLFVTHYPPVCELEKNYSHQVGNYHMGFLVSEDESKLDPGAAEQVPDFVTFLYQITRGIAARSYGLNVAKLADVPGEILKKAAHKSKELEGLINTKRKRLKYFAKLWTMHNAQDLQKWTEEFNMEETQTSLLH
UniProt Q96I59: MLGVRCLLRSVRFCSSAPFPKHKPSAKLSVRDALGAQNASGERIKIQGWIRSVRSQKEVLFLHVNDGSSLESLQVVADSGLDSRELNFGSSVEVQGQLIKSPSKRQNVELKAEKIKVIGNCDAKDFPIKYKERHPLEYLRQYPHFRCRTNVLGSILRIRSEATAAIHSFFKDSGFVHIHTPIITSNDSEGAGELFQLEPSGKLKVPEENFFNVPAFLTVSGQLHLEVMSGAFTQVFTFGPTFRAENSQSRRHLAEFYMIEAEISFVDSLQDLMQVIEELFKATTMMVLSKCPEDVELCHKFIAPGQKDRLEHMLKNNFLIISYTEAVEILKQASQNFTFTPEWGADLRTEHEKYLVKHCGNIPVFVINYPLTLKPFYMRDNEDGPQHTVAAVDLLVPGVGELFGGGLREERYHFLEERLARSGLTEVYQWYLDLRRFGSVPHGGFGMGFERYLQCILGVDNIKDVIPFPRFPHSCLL
UniProt Q96H55, whole entry, looked up: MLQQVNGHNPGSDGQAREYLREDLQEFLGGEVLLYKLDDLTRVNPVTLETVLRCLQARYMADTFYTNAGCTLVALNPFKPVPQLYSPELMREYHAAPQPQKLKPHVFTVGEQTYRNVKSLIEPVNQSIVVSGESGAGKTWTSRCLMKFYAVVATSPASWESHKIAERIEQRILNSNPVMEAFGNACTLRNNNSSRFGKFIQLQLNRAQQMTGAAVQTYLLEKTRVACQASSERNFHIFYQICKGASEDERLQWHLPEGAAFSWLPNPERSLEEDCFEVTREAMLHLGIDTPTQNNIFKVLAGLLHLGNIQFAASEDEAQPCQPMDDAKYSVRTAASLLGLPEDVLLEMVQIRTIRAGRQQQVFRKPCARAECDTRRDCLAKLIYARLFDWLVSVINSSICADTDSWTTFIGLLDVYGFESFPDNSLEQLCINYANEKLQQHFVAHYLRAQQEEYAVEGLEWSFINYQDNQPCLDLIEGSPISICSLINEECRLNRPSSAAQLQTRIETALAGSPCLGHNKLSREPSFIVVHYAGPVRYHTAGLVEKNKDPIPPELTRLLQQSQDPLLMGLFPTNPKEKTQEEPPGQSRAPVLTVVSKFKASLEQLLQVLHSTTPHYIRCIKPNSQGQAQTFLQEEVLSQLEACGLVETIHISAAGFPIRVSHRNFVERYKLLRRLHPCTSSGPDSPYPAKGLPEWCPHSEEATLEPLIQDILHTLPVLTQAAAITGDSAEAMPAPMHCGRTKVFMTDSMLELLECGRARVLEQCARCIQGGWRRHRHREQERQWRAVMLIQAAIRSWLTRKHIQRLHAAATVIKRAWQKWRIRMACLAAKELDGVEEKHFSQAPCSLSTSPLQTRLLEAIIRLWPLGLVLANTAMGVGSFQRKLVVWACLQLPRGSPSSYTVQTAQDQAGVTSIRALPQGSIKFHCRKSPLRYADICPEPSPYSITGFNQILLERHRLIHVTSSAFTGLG
UniProt Q9C0I1: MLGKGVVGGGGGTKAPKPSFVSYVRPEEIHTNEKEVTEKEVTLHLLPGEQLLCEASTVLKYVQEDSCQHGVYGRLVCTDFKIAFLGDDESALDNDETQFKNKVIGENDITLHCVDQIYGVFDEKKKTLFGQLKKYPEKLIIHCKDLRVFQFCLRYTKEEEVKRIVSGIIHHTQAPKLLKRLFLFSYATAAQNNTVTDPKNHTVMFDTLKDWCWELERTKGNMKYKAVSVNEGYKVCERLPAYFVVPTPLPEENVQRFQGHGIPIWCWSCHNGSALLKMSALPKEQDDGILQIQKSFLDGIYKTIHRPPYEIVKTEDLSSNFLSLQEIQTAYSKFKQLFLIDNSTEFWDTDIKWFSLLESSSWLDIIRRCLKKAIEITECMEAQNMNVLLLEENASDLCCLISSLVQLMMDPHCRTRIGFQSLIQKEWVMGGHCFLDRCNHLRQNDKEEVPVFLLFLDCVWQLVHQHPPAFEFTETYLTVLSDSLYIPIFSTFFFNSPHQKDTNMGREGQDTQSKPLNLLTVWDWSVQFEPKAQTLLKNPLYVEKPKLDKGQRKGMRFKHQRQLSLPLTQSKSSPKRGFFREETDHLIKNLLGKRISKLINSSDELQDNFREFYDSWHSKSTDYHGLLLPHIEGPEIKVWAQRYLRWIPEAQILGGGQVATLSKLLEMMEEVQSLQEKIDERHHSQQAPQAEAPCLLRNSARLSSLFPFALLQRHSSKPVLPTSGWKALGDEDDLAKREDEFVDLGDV
UniProt Q13614, whole entry, looked up: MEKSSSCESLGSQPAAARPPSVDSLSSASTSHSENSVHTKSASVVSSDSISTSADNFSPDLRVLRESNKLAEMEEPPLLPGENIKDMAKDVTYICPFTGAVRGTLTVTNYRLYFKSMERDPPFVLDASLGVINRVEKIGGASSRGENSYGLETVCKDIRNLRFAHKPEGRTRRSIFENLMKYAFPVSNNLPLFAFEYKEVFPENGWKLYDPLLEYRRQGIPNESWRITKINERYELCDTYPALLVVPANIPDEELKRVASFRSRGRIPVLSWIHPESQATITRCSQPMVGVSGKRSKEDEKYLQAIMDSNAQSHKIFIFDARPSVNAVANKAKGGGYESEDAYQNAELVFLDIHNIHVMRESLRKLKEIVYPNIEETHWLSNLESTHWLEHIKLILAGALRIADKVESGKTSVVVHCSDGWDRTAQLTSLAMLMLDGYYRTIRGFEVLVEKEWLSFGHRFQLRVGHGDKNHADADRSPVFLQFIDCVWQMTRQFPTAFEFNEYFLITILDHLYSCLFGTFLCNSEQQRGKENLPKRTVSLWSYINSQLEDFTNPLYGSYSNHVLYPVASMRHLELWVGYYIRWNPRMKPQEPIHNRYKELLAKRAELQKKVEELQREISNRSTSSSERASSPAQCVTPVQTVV
UniProt Q13614, 4-40: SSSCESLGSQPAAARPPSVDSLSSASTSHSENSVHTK
UniProt Q9Y4I1, whole entry, looked up: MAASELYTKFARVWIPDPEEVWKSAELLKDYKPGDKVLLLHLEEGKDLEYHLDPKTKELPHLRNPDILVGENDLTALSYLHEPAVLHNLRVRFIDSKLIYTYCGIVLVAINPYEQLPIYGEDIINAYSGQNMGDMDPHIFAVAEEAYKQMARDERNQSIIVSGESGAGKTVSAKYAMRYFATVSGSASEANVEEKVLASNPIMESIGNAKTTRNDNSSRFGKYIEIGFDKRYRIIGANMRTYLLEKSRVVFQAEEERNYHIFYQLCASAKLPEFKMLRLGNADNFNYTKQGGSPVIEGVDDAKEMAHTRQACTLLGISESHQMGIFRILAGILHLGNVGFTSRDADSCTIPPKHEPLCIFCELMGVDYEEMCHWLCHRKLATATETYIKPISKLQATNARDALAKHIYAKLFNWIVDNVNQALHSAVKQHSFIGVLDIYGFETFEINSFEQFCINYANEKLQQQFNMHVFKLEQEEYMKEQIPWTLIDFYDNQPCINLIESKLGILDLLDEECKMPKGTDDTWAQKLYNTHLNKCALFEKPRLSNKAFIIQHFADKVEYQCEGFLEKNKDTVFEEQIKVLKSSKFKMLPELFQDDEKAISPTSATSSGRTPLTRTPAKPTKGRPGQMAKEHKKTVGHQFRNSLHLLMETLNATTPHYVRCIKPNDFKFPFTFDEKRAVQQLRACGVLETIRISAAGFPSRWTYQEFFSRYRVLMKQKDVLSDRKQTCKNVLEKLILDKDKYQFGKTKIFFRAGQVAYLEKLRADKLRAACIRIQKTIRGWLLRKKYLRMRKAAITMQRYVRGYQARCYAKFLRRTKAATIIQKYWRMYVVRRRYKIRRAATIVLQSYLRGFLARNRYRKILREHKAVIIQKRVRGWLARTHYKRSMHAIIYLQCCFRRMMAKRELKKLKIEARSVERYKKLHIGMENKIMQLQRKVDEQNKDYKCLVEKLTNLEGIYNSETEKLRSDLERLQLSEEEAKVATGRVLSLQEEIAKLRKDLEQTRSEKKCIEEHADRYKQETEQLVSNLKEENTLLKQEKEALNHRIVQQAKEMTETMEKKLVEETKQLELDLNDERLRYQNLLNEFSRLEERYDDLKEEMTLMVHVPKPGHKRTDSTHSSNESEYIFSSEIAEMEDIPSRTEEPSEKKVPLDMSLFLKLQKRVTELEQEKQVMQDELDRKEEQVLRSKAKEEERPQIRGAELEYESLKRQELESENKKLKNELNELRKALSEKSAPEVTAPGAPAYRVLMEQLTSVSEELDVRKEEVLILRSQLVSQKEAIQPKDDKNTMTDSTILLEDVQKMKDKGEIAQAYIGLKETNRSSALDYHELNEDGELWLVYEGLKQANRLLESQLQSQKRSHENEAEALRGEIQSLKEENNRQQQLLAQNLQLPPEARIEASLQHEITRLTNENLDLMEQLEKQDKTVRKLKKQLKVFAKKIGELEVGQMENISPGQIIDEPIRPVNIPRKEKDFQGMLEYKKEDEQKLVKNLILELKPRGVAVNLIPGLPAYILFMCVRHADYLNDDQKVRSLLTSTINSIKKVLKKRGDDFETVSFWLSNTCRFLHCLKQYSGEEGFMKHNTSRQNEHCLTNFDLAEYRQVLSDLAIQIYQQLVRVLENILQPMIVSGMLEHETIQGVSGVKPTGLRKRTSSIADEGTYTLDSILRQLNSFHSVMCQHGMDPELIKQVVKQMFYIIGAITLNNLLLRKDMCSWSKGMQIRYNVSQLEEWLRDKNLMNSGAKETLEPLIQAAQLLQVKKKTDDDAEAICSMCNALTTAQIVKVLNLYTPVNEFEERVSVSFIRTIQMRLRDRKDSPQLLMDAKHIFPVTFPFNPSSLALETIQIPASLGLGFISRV
UniProt Q9Y3D2, 23-51: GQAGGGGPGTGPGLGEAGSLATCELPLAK
UniProt P54920: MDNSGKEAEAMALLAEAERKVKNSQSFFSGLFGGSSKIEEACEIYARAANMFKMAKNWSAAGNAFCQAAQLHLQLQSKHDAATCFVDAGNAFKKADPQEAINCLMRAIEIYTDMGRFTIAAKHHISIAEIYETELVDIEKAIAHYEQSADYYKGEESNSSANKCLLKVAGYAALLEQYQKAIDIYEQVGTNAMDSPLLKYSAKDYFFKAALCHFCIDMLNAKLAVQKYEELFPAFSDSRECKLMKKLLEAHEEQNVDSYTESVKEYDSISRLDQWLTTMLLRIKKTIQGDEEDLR
UniProt Q96DP5: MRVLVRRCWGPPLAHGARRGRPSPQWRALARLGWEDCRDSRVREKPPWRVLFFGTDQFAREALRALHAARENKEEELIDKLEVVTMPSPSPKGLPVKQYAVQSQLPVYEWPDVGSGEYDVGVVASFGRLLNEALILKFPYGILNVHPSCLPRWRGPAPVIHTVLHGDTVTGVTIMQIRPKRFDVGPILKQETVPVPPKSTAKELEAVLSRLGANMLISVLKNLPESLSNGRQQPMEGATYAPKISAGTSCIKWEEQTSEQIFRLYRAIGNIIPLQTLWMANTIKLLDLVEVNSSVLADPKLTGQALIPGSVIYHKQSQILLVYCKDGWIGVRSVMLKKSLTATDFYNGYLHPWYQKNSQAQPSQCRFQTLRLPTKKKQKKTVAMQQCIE

Tests used:
[1] = compound: ClCC(=O)N[C@@H]1CCCc2ccccc12; test: log2 mean competition ratio of IA-DTB cysteine labelling (DMSO/compound) (log2 ratio); higher = stronger cysteine engagement by compound; conditions: treatment time: 4 h, cell line lysate: HEK293T
Protocol: (§1)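 IA-DTB competitive cysteine chemoproteomics in HEK293T RIPA lysate. Lysates were treated with compound 29 or 30 at 50 or 200 µM for 4 h, then IA-DTB (500 µM, 1 h), trypsin-digested, NeutrAvidin-enriched and analysed by diaPASEF. Competition ratio = intensity DMSO / intensity compound (n=4 treated, n=64 DMSO); binding: mean log2 CR ≥ 1 and p ≤ 0.05 plus QC filters. Target is the cysteine site.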

[2] = compound: ClCC(=O)N[C@H]1CCCc2ccccc12; test: as above; conditions: treatment time: 4 h, cell line lysate: HEK293T
Protocol: as §1

| Target | log2 mean competition ratio ([1]; 50 µM) | log2 mean competition ratio ([1]; 200 µM) | log2 mean competition ratio ([2]; 50 µM) | log2 mean competition ratio ([2]; 200 µM) |
| --- | --- | --- | --- | --- |
| MTHFSD C215 (UniProt Q2M296) | 0.422 | 0.0206 | -0.276 | 0.219 |
| MSH3 C166 (UniProt P20585) | 0.276 | 0.239 | 0.714 | -0.0919 |
| MYCBP2 C2951 (UniProt O75592) | 0.161 | 0.103 | -0.0658 | 0.0107 |
| MTERF1 C62 | 0.606 | -0.0269 | 0.174 | 0.0195 |
| MYSM1 C773 (UniProt Q5VVJ2) | -0.162 | 0.471 | 0.211 | 0.479 |
| NARS1 C537 | -0.126 | -0.163 | -0.0672 | -0.166 |
| NADK2 C193 (UniProt Q4G0N4) | 0.134 | -0.105 | 0.0216 | -0.0595 |
| MYO1C C585 (UniProt O00159) | 0.479 | 0.191 | 0.411 | 0.235 |
| MYO1C C161 (UniProt O00159) | -0.113 | 0.0445 | 0.258 | 0.115 |
| MXI1 C100 | -0.0276 | 0.163 | 0.0936 | 0.204 |
| NAB2 C499 (UniProt Q15742) | 0.381 | -0.0693 | 0.434 | -0.174 |
| NARS2 C475 (UniProt Q96I59) | -0.11 | 0.182 | -0.463 | 0.15 |
| MTRFR C81 | 0.0329 | 0.13 | 0.375 | -0.0288 |
| NADSYN1 C428 (UniProt Q6IA69) | -0.206 | -0.032 | 0.00656 | 0.055 |
| MRPL44 C96 (UniProt Q9H9J2) | 0.123 | 0.0147 | -0.23 | 0.0162 |
| N4BP2 C1764 (UniProt Q86UW6) | 0.269 | -0.125 | 0.466 | -0.191 |
| MSH3 C626 (UniProt P20585) | 0.299 | 0.0966 | 0.501 | -0.102 |
| NACC1 C464 (UniProt Q96RE7) | -0.323 | -0.373 | 0.127 | 0.219 |
| NACC1 C178 (UniProt Q96RE7) | -0.126 | 0.0871 | -0.112 | -0.265 |
| MYO6 C668 (UniProt Q9UM54) | 0.324 | -0.409 | 0.705 | -0.379 |

| Target | log2 mean competition ratio ([1]; 50 µM) | log2 mean competition ratio ([1]; 200 µM) | log2 mean competition ratio ([2]; 50 µM) | log2 mean competition ratio ([2]; 200 µM) |
| --- | --- | --- | --- | --- |
| MYO9A C1226 (UniProt B2RTY4) | -0.142 | -0.0884 | -0.0125 | 0.00777 |
| MYO19 C227 (UniProt Q96H55) | -0.293 | 0.0829 | 0.0678 | 0.235 |
| MTMR12 C67 (UniProt Q9C0I1) | – | – | -0.421 | -0.77 |
| MTOR C713 (UniProt P42345) | 0.0315 | -0.338 | 0.323 | -0.215 |
| MTERF4 C76 (UniProt Q7Z6M4) | – | – | -0.304 | 0.259 |
| NAIF1 C61 (UniProt Q69YI7) | – | – | -0.0865 | 0.00603 |
| MTMR2 C417 (UniProt Q13614) | -0.394 | -0.48 | -0.486 | -0.338 |
| MTX1 C326 (UniProt Q13505) | 0.239 | -0.216 | 0.372 | -0.00997 |
| MYO5A C1711 (UniProt Q9Y4I1) | – | – | -0.109 | 0.484 |
| MYO9B C1876 (UniProt Q13459) | 0.347 | 0.163 | -0.143 | 0.134 |
| MRPL22 C70 (UniProt Q9NWU5) | – | – | 0.0665 | 0.0598 |
| MSRB2 C45 (UniProt Q9Y3D2) | -0.294 | 0.151 | 0.142 | 0.575 |
| NAA35 C230 (UniProt Q5VZE5) | -0.583 | 0.259 | -0.426 | -0.0512 |
| MRPL53 C63 (UniProt Q96EL3) | – | – | -0.371 | 0.119 |
| MTARC1 C300 | – | – | -0.181 | 0.0228 |
| NAA15 C214 | – | – | -0.398 | -0.221 |
| NAP1L1 C88 | – | – | 0.305 | -0.00589 |
| MTR C812 (UniProt Q99707) | – | – | -0.295 | 0.488 |
| MYH10 C1011 (UniProt P35580) | 0.0198 | -0.215 | -0.524 | -0.321 |
| MYO9B C1857 (UniProt Q13459) | – | – | -0.486 | 0.148 |

| Target | log2 mean competition ratio ([1]; 50 µM) | log2 mean competition ratio ([1]; 200 µM) | log2 mean competition ratio ([2]; 50 µM) | log2 mean competition ratio ([2]; 200 µM) |
| --- | --- | --- | --- | --- |
| MRPS18A C108 (UniProt Q9NVS2) | – | – | 0.0586 | 0.0225 |
| MYO18A C250 (UniProt Q92614) | -0.0605 | – | 0.0404 | 0.353 |
| MVK C101 (UniProt Q03426) | – | – | 0.0436 | -0.0354 |
| MYO1B C641 (UniProt O43795) | – | – | 0.324 | 0.359 |
| NAPA C42 (UniProt P54920) | – | – | -0.338 | -0.0123 |
| MTMR2 C284 (UniProt Q13614) | -0.0164 | -0.0674 | -0.288 | -0.173 |
| MYBL2 C69 (UniProt P10244) | – | – | 0.162 | 0.0356 |
| MRPL33 C29 (UniProt O75394) | -0.0141 | -0.147 | 0.299 | -0.208 |
| MTFMT C37 (UniProt Q96DP5) | -0.126 | 0.349 | -0.188 | 0.414 |
| MUL1 C113 (UniProt Q969V5) | – | – | 0.091 | -0.0599 |
| MTMR2 C635 (UniProt Q13614) | – | – | 0.295 | -0.141 |
| MSI2 C168 (UniProt Q96DH6) | -0.135 | -0.226 | -0.162 | -0.235 |
| MSH6 C1337 (UniProt P52701) | 0.00142 | 0.0493 | 0.0528 | 0.0206 |
| MTARC2 C299 | – | – | 0.247 | 0.0632 |
| MTHFD1L C61 | – | – | 0.0137 | 0.114 |
| MYO6 C587 (UniProt Q9UM54) | – | – | 0.489 | -0.0635 |
| NAIF1 C266 (UniProt Q69YI7) | – | – | 0.142 | -0.355 |
| MTMR2 C7 (UniProt Q13614) | 0.0415 | -0.239 | 0.39 | -0.437 |

A few values from the list:
MTARC2 C299 | log2 mean competition ratio ([2]; 200 µM): 0.0632
MTMR2 C635 (UniProt Q13614) | log2 mean competition ratio ([2]; 200 µM): -0.141
MYO18A C250 (UniProt Q92614) | log2 mean competition ratio ([1]; 50 µM): -0.0605
MSI2 C168 (UniProt Q96DH6) | log2 mean competition ratio ([1]; 50 µM): -0.135
